Assay results: PubChem BioAssay AID588463 (National Center for Advancing Translational Sciences (NCATS), 2011)
Among all 1,200 compounds or so, about 15 (1%) were called active. About 7% were inconclusive and are not listed. Calls come from the whole dose curve; as a rule, active = well fitted activation curve with a large enough effect; inconclusive = small, poorly fitted or top-dose-only effect; inactive = flat fitted curve, though single readings scatter. Some of the results follow.

target: Beta-2 adrenergic receptor (Homo sapiens) (UniProt P07550); assay: qHTS assay of beta-arrestin-biased ligands of beta2-adrenergic receptor: Hit Validation; settings: cell-based beta-arrestin recruitment to beta2AR; Potency: activation; series mostly up to 46.1 µM; activation: at the top concentration;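 note: plate controls were DMSO for no effect and maximal isoproterenol or metaproterenol response for full effect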
In short: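 Luminescent tTA-driven luciferase reporter in Tango cells, read after 18 h at 37 °C with compound and 15 min with substrate mix (0.15 mM ATP, 0.44 mM D-luciferin, final). Concentration-response fits categorized by curve class.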

activation, inactive:
CCN(CC)c1ccc(N2C(=O)/C(=C/c3cccnc3)SC2=S)cc1 -2.32%, Cc1ccc(S(=O)(=O)N(CC(=O)N/N=C/c2ccco2)c2cc(Cl)cc(Cl)c2)cc1 0.42%, C=C(C)C(=O)Oc1ccc(N2C(=O)[C@@H]3C4C=CC(C4)[C@@H]3C2=O)cc1 -0.877%, COc1ccccc1N=NC1C(=O)N(C(N)=S)N=C1C (stereo not given) -4.57%, CCNC(=S)NNc1nncc2ccccc12 -2.03%, COc1ccc(C)cc1N(C(=O)c1cccc(F)c1)c1nc2ccccc2s1 6.6%, O=[N+]([O-])c1ccc(/C=C2\CCC(C3=CCCC3)=C2N2CCOCC2)cc1 -1.92%, Cc1nn(-c2ccccc2)c(C)c1/C=N/NC(=O)CSc1nnc(SCc2ccccc2Cl)s1 -0.869%, Cc1cccc(N=C2NC(=O)/C(=C/c3cccs3)S2)c1 -0.803%, O=[N+]([O-])c1cc(Br)cc(C=Nc2ccc3c(c2)OCO3)c1O -0.425%, O=C(Oc1ccc(Cl)c2cccnc12)c1ccco1 0.103%, O=C(N/N=C/c1c[nH]c2ccc(Br)cc12)C1CC1 -2.83%, COc1ccc(-c2nnc(SCC(=O)Nc3cc(C)on3)o2)cc1 -3.61%, Cc1ccc(/C=C2/C(=O)N(c3ccccc3)C(=S)N2C)o1 -3.96%, CCc1cc2c(=O)nc3n(c2s1)Cc1ccccc1/C3=C(/O)c1ccc(F)cc1 1.92%, COc1ccc(CN2CSC(=S)N(Cc3ccccc3)C2)cc1 -4.29%, COc1ccc(C(=O)C2CCCN(C/C=C/c3ccccc3OC)C2)c(OC)c1 (stereo not given) 5.65%, CN(C(=O)CSc1nnc(-c2cccs2)n1C1CC1)C1CCS(=O)(=O)C1 (stereo not given) -2.77%, CCn1c(SCC(=O)c2ccc(Cl)cc2)nnc1C(C)C -0.908%, S=C(Nc1ccccc1)Nc1nc2ccccc2n1CCOc1ccc(Cl)cc1 -4.14%, CCCC(=O)NC(=S)Nc1ccc(Cl)cn1 -1.8%, N#CC[C@H](Cc1ccccc1)N1CC[C@@H](O)CCC1=O -0.52%, CC1=CC2=NC(=O)/C(=C/c3coc4ccccc4c3=O)C(=N)N2O1 -1.65%, COc1ccc(OCCCC(=O)Nc2nc(-c3ccccn3)cs2)cc1 9.17%, O=C(O)c1[nH]c2ccccc2c1C(c1cc(Br)ccc1O)c1c(C(=O)O)[nH]c2ccccc12 -1.89%, O=C(Cn1cc(-c2nnnn2-c2ccc(Cl)cc2)c(=O)c2ccccc21)c1ccccc1 -1.66%, CC1CN(C(=S)NC(=O)c2ccc([N+](=O)[O-])cc2)CC(C)O1 (stereo not given) -1.79%, Cc1ccc(C(=O)N/C(=C\c2ccco2)C(=O)NCCc2c[nH]c3ccccc23)cc1 -2.46%, CC(C)(O)C(=O)NN(C(=O)c1ccccc1)c1ccc2ccccc2c1 -2.62%, CC(NC(=O)NNC(N)=S)(C(F)(F)F)C(F)(F)F -2.46%, Oc1ccccc1/C=N/Nc1nc2ccccc2o1 5.21%, Cc1ccc(S(=O)(=O)CNC(=S)c2ccc3ccccc3c2)cc1 -2.6%, COc1cc(/C=C2\CC/C(=C\c3ccc(OCCO)c(OC)c3)C2=O)ccc1OCCO 0.204%, S=C(Nc1ccccc1)Nc1nccs1 -1.57%, Cc1nn2c(nc1=O)NNC2(C)C(C)(C)C (stereo not given) 4.3%, Cc1nn2c(COc3ccc(NC(=O)c4ccccc4Cl)cc3)nnc2c2ccccc12 0.533%, CCC1=Nc2cc(C(=O)NCc3ccco3)ccc2Sc2ccccc21 -0.414%, Cc1cccc(NC(=S)N=Nc2c(O)n(CN3CCOCC3)c3ccccc23)c1C -2.46%, O=C(c1ccc(CN2CCOCC2)cc1)N1CCN(c2cccc(Cl)c2)CC1 -3.76%, O=C(COC(=O)c1cc(=O)c2ccccc2o1)Nc1ccc2ccccc2c1 -3.15%, CN(C)NC(=S)Nc1ccc(Cl)cc1 -4.31%, Nc1ncnc(Oc2cccc3cccnc23)c1[N+](=O)[O-] -2.28%, O=C(/C=C/c1ccccc1)Oc1cccc2cccnc12 -4.36%, C=CCn1c(O)c(N=NC(=S)Nc2ccccc2C)c2cc(S(=O)(=O)N3CCOCC3)ccc21 -2.97%, O=C(CSC(=S)N1CCCCC1)c1c(F)cccc1F -1.39%, Cn1c(CNC(=O)c2ccccc2F)nnc1SCC(=O)c1ccccc1 0.675%, O=c1c(Cl)c(NCCCO)cnn1-c1nc2ccccc2[nH]1 -3.17%, COc1ccc(N2C(=O)CS/C2=N\C(=S)Nc2ccccc2)cc1 -5.46%, C=CCNC(=S)N/N=C/c1ccc(C)s1 -1.8%, CC1(C)C/C(=N\NC(=S)Nc2ccccc2F)c2cc(O)ccc2O1 -2.37%, COc1ccc(CN2CCCC(C(=O)c3ccc(SC)cc3)C2)cc1Cn1cccn1 (stereo not given) 0.256%, CN1CCc2cccc3c2[C@H]1Cc1ccc(O)c(O)c1-3 -3.37%, COc1ccc(C2=C(C=C(C#N)C#N)C(c3ccccc3C)c3ccccc3O2)cc1OC (stereo not given) -1.2%, O=C(CN1CCN(Cc2ccc3c(c2)OCO3)CC1)Nc1ccc(F)cc1 -2.52%, O=C(C[C@H]1C[C@H](C(=O)N2CCCCC2)[C@@]2(CCc3ccccc3)c3[nH]c4cc(-c5ccco5)ccc4c3CCN2C1=O)NCCC1=CCCCC1 0.303%, COc1cc(/C=N/NC(=S)Nc2cccnc2)cc(OC)c1OC -4.48%, O=C(c1ccccc1)c1ccc2nc(-c3ccco3)c(-c3ccco3)nc2c1 -1.16%, CCN(CC)CCC(=O)N1c2ccccc2Sc2ccc(NC(=O)OC)cc21 -1.25%, C=CCNC(=S)NN=C1CCC(c2ccccc2)CC1 (stereo not given) -4%, COc1ccc(N2CCN(CCOc3ccc4c(C)cc(=O)oc4c3)CC2)cc1 -3.41%, CC(C)[C@H](NC(=O)c1ccccc1Cl)C(=O)Nc1nc(-c2ccccn2)cs1 -5.38%, O=C(NC(=S)Nc1ccc(Cl)cc1)c1ccccc1 -2.83%, COc1ccc(/C=N/Nc2nncc3ccccc23)c(OC)c1 -3.29%, Oc1ccc(NCc2ccccc2OCc2ccccc2)cc1 -3.26%, Cn1c(O)c(/C=N/NC(=O)c2cc3ccccc3cc2O)c2ccccc21 -3.51%, C/C(=N\NC(=S)NC(C)C)c1ccccc1OC(F)F -3.96%, CCOC(=O)c1cnc(-n2nc(C)cc2C)nc1NC -2.59%, Cc1ccc(S(=O)(=O)NCCC(C)C)cc1[N+](=O)[O-] -2.78%, COCCNC(=S)N/N=C(\C)c1ccccc1F -1.09%, O=C(NCc1ccc(Cl)cc1)c1cccc(NC(=O)c2ccccc2)c1 -3.54%
